PubChem BioAssay AID504764 | Drosophila RNAi Screening Center, 2011
Aim: 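Genes whose knock-down alters Notch-dependent transcription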 (primary screen). System: Drosophila Kc167 cells. Reagent: long dsRNA against Drosophila genes. Duration: about 5 days (4 days dsRNA, then 24 h after transfection). Challenge: transfection of constitutively active membrane-tethered Notch lacking the extracellular domain, read 24 h later. Measured: 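Light from a Notch-responsive E(spl)m3 luciferase reporter under active Notch, with control-promoter and no-Notch reporter wells to normalise; raw counts from paired wells a and b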. Scale: induced reporter light, run 1, well a and induced reporter light, run 1, well b: higher = more light from the Notch target reporter with active Notch; control promoter light, run 1, well a and control promoter light, run 1, well b: higher = more light from the viral control promoter (cell number, transfection, viability); uninduced reporter light, run 1, well a: higher = more light from the Notch target reporter without active Notch. Active means: 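Hit if the duplicate-averaged log2 ratio of induced to control-promoter light gives a plate-wise z beyond ±2, or induced to uninduced beyond ±1.8; weak-control or discordant-duplicate wells dropped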. Calls: active = modifier hit (raised or lowered Notch signal); inactive = not a hit.
In all, the deposit lists about 22,000 reagents; this is a random part of those that have a named target and a result. Of all reagents, 403 (1.9%) got an active call. 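Unnormalised raw counts per well; ratio z-scores behind the hit calls and whether each hit raises or lowers signal are not deposited.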 A number with no mark means an inactive call. Not stated in the record: the amount of reagent.

With nenya (GeneID 318572) [DRSC13838], what was measured?
induced reporter light, run 1, well a: 2.19e5; induced reporter light, run 1, well b: 2.21e5; control promoter light, run 1, well a: 2.30e5; control promoter light, run 1, well b: 2.26e5; uninduced reporter light, run 1, well a: 16375

What did the screen give for Ptth (GeneID 33238) [DRSC00356]?
induced reporter light, run 1, well a: 1.18e5; induced reporter light, run 1, well b: 1.05e5; control promoter light, run 1, well a: 92695; control promoter light, run 1, well b: 47010; uninduced reporter light, run 1, well a: 7965

For CG14628 (GeneID 31057) [DRSC18626], what does the deposit list?
induced reporter light, run 1, well a: 1.06e5; induced reporter light, run 1, well b: 1.05e5; control promoter light, run 1, well a: 1.71e5; control promoter light, run 1, well b: 1.81e5; uninduced reporter light, run 1, well a: 7210

With CG17195 (GeneID 43113) [DRSC15188], what was measured?
induced reporter light, run 1, well a: 1.86e5; induced reporter light, run 1, well b: 1.84e5; control promoter light, run 1, well a: 2.40e5; control promoter light, run 1, well b: 2.21e5; uninduced reporter light, run 1, well a: 13650

How did the screen score mtTFB2 (GeneID 41228) [DRSC15519]?
induced reporter light, run 1, well a: 1.04e5; induced reporter light, run 1, well b: 1.63e5; control promoter light, run 1, well a: 1.51e5; control promoter light, run 1, well b: 1.64e5; uninduced reporter light, run 1, well a: 3370

Which result is listed for CG32379 (GeneID 326211) [DRSC10318]?
induced reporter light, run 1, well a: 1.72e5; induced reporter light, run 1, well b: 1.25e5; control promoter light, run 1, well a: 1.48e5; control promoter light, run 1, well b: 1.24e5; uninduced reporter light, run 1, well a: 8045

How did the screen score CG1902 (GeneID 35993) [DRSC06798]?
induced reporter light, run 1, well a: 1.39e5; induced reporter light, run 1, well b: 1.82e5; control promoter light, run 1, well a: 1.71e5; control promoter light, run 1, well b: 1.39e5; uninduced reporter light, run 1, well a: 14305

Which result is listed for Gr61a (GeneID 38098) [DRSC08358]?
induced reporter light, run 1, well a: 91285; induced reporter light, run 1, well b: 1.19e5; control promoter light, run 1, well a: 1.98e5; control promoter light, run 1, well b: 1.87e5; uninduced reporter light, run 1, well a: 6020

For CG14419 (GeneID 31276) [DRSC17916], what was measured?
induced reporter light, run 1, well a: 1.12e5; induced reporter light, run 1, well b: 1.08e5; control promoter light, run 1, well a: 2.06e5; control promoter light, run 1, well b: 1.91e5; uninduced reporter light, run 1, well a: 8295

With bgm (GeneID 44117) [DRSC03495], how do the results read?
induced reporter light, run 1, well a: 1.94e5; induced reporter light, run 1, well b: 1.73e5; control promoter light, run 1, well a: 1.84e5; control promoter light, run 1, well b: 2.10e5; uninduced reporter light, run 1, well a: 13400

For Arf1 (GeneID 40506) [DRSC11606], what does the deposit list?
induced reporter light, run 1, well a: 66075; induced reporter light, run 1, well b: 64645; control promoter light, run 1, well a: 48260; control promoter light, run 1, well b: 39600; uninduced reporter light, run 1, well a: 4500

What is on record for GXIVsPLA2 (GeneID 39734) [DRSC10243]?
induced reporter light, run 1, well a: 1.12e5; induced reporter light, run 1, well b: 1.47e5; control promoter light, run 1, well a: 71075; control promoter light, run 1, well b: 80710; uninduced reporter light, run 1, well a: 9130

An excerpt from above, showing only “control promoter light, run 1, well a”.
CG1902 (GeneID 35993) [DRSC06798] = 1.71e5
Gr61a (GeneID 38098) [DRSC08358] = 1.98e5
